# Results from PubChem BioAssay AID2685 (National Center for Advancing Translational Sciences (NCATS), 2010).
# The other results are listed elsewhere or left out. The main result of the screen is listed elsewhere. These columns were measured beside it and carry no call. Most of these compounds were active or inconclusive in the main read-out, so they are no random draw. Potencies come from curve fits of mixed quality, noted in brackets.
# Test: qHTS Assay for Lipid Storage Modulators in Drosophila S3 Cells;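 for cell number change: cells counted by Cell Tracker Red CMTPX staining in the red channel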
# Conditions: BODIPY lipid droplet fluorescence, 18-24 h; for cell number change: measured here: cell count max response, cells fed with added oleic acid
# Procedure, shortened: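 Laser-scanning cytometry quantifies lipid droplet accumulation (500–530 nm total intensity; droplet/cell object ratio) in oleic acid-fed (400 uM added) Drosophila S3 cells treated with a concentration series. 20 uM Triacsin C defined 100% inhibition.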
# [1] = measured here: lipid fluorescence (Fed channel) AC50, cells fed with added oleic acid
# [2] = measured here: cell number channel AC50, cells fed with added oleic acid
Compound,cell number change [%],AC50 [1],AC50 [2]
COc1ccc(OC)c(/C=N/NC(=O)CN2CCSCC2)c1,-2.89,"25900 nM [rising, single point]",–
O=C(C1=C(O)C(=O)N(c2ncccn2)C1c1ccc(Cl)c(Cl)c1)c1ccco1 (stereo not drawn),-2.33,–,–
CCOC(=O)CSc1nnc(-c2ccccc2NC(=O)c2ccccc2)o1,17.3,"29100 nM [rising, single point]",–
CS(=O)(=O)N1CCN(c2ccc(NC(=O)COc3ccccc3)cc2)CC1,-30.1,"461 nM [falling, full curve, poor fit]","116 nM [falling, full curve, poor fit]"
NC(=O)c1ccc(NC(=O)CN2CCN(S(=O)(=O)c3ccc4c(c3)OCCO4)CC2)cc1,-25,"32600 nM [falling, single point]",–
Cc1ccccc1OCC(=O)Nc1cnn(CCCC(=O)O)c1,19,"1460 nM [rising, full curve, poor fit]",–
COc1ccc2oc(=O)c(C(=O)Nc3ccccc3-c3ccccc3)cc2c1,–,"116 nM [rising, full curve, poor fit]",–
COc1cc2nc(CN(C)Cc3ccc(Cl)cc3)[nH]c(=O)c2cc1OC,83.5,"4.61 nM [rising, full curve, poor fit]","23100 nM [rising, single point]"
O=C(OCc1cccc([N+](=O)[O-])c1)c1cccnc1,-32.5,"20600 nM [falling, single point]","32600 nM [falling, single point]"
Cc1cc(C)nc(SCCCNCc2ccc(Br)cc2)n1,-5.67,"29100 nM [falling, single point]",–
O=c1cc(CN2CCN(S(=O)(=O)c3ccc4c(c3)OCCO4)CC2)c2ccc(O)cc2o1,11.5,–,"130 nM [falling, full curve, poor fit]"
Cc1cccc(NC(=O)c2cc(S(=O)(=O)N(C)c3ccc(F)cc3)ccc2Cl)n1,-50.5,"326 nM [falling, full curve, poor fit]","16400 nM [falling, partial curve, poor fit]"
CC(C)C1N(c2ccccc2)C(N)=C(C#N)C1(C#N)C#N (stereo not drawn),84.1,"18400 nM [rising, single point]","18400 nM [rising, single point]"
Cc1cc2cc(CNC(=O)Cc3ccc([N+](=O)[O-])cc3)ccc2[nH]1,86.4,"18400 nM [rising, single point]","29100 nM [rising, single point]"
Cc1nc(N/N=C/c2ccc(Br)cc2)cc(N2CCOCC2)n1,-6.32,"517 nM [falling, single point]",–
COc1ccc2nc3c(cc2c1)c(NC(=O)c1cccs1)nn3CC(C)C,17.9,"461 nM [rising, partial curve]","1030 nM [rising, single point]"
CC(C)CCNC(=O)C(c1ccco1)N(Cc1ccc(F)cc1)C(=O)c1snc(C(N)=O)c1N (stereo not drawn),3.61,"29100 nM [rising, single point]","731 nM [rising, partial curve, poor fit]"
CCOC(=O)C1CN(S(=O)(=O)c2ccc(Cl)cc2)c2cc(S(=O)(=O)CC)ccc2O1 (stereo not drawn),-33.1,–,"6510 nM [falling, single point]"
COCCNC(=S)NCCc1ccc(Cl)cc1Cl,8.61,"411 nM [falling, full curve]","731 nM [falling, full curve]"
c1ccc(COc2nsnc2N2CCOCC2)cc1,–,"651 nM [falling, single point]",–

Compound,cell number change [%],AC50 [1],AC50 [2]
CC(C)COC(=O)CCn1[nH]c(=O)c2ccccc2c1=O,-18.4,"580 nM [falling, full curve, poor fit]","326 nM [rising, full curve, poor fit]"
N#C/C(=C\c1ccc[nH]1)C(=O)Nc1ccccc1F,8.38,"6510 nM [falling, single point]",–
Cc1cccc(C)c1OCC(=O)NNC(=O)CCNC(=O)c1ccco1,–,"2910 nM [rising, single point]",–
O=C(N/N=C/c1ccco1)c1ccc(NC(=O)C2CCCCC2)cc1,-21.2,–,"517 nM [falling, full curve, poor fit]"
Cc1cccc2cc(CN(Cc3nnnn3Cc3ccccc3)C3CCCC3)c(=O)[nH]c12,–,"1160 nM [rising, full curve]",–
CC(=O)Nc1ccc(C(=O)COC(=O)C2CC2C)c(F)c1 (stereo not drawn),26.5,–,–
COC(=O)c1cc(NC(=O)c2ccc(OC)cc2)c(=O)oc1C,2.39,–,–
COc1ccc(NC(=O)CSc2nnc(Cc3cccs3)n2C)cc1,23.7,–,–
CCC1(c2ccc(F)cc2)NC(=O)N(CC(=O)NCc2ccccc2Cl)C1=O (stereo not drawn),19.8,"1840 nM [rising, full curve, poor fit]",–
CN(CC(=O)Nc1cccc2ccccc12)C(=O)c1ccc(F)cc1F,-14.5,"16400 nM [rising, partial curve]",–
CC(=C/c1ccccc1)/C=N/n1c(-c2ccco2)n[nH]c1=S,-36.9,–,"7310 nM [falling, partial curve, poor fit]"
CCN1CCN(c2nc3c(c(=O)[nH]c(=O)n3C)n2Cc2ccccc2)CC1,2.36,"2310 nM [falling, full curve]",–
CCN(C(=O)CSc1nnc(-c2ccco2)n1CC)c1c(N)n(Cc2ccccc2)c(=O)[nH]c1=O,3.35,–,–
CCCCNC(=O)CN1C(=O)NC(Cc2ccccc2)(Cc2ccccc2)C1=O,6.45,–,–
COc1ccc(OCC(=O)Nc2nc3c(s2)CCCC3)cc1,-27.1,–,–
COc1ccc(C2=NOC(Cn3nc(C(=O)NCc4ccc5c(c4)OCO5)cc3-c3ccccc3)C2)cc1 (stereo not drawn),28.5,"580 nM [falling, full curve]",–
O=C(NC1CCCCC1)C(c1ccccc1F)N(Cc1ccco1)C(=O)Cn1nnc2ccccc21 (stereo not drawn),-25.3,"5800 nM [falling, partial curve]",–
CCCn1c(SCC(=O)Nc2sc(C)c(C)c2C(=O)OC)nc2c1c(=O)n(C)c(=O)n2C,4.14,"2060 nM [rising, partial curve, poor fit]",–
Cc1ccc(COc2ccsc2C(=O)NN)cc1,0.13,"6510 nM [rising, partial curve]","6510 nM [rising, partial curve, poor fit]"
CC(NC(=O)c1ccc2c(c1)OCO2)c1ccccc1 (stereo not drawn),2.1,"4.11 nM [rising, partial curve, poor fit]",–

Compound,cell number change [%],AC50 [1],AC50 [2]
COc1cccc(NC(=O)c2ccc3c(O)c(S(=O)(=O)c4ccccc4)c(=O)[nH]c3c2)c1,-0.989,–,–
COc1ccccc1C(=O)N(Cc1ccccc1)c1ccc(C)cc1,20.8,"1640 nM [rising, partial curve]",–
CCc1cc(C(=O)Cc2nc3ccccc3[nH]2)c(O)cc1O,-6.51,"206 nM [falling, partial curve, poor fit]",–
CC(C)(C)NC(=O)C(OC(=O)Cn1nnc(-c2ccc(F)cc2)n1)c1ccncc1 (stereo not drawn),5.83,–,–
CC(C)(C)c1ccc(-c2cc(-c3ccccc3O)[nH]n2)cc1,4.73,–,–
CN/C(=C/[N+](=O)[O-])NCCSCc1ccc(CN(C)C)o1,-31.9,–,"4110 nM [falling, full curve, poor fit]"
O=C(CN1C(=O)NC2(CCc3ccccc32)C1=O)c1ccc(F)c(F)c1 (stereo not drawn),31.1,–,"3660 nM [rising, full curve, poor fit]"
Cc1cccc(NC(=O)c2cc(S(=O)(=O)N3CCCCC3)c[nH]2)c1C,10.2,"29100 nM [rising, single point]",–
CC1(C)CN2C(=S)N(c3ccccc3)C(c3ccccc3)N2C1 (stereo not drawn),-54,–,"18400 nM [falling, single point]"
Nc1c(SCCC(=O)O)ccc2c1C(=O)c1ccccc1C2=O,-66.7,–,"20600 nM [falling, partial curve, poor fit]"
O=C(NCC1CCCO1)C1CC(=O)N(C2CCCC2)C1 (stereo not drawn),7.24,"23100 nM [falling, partial curve]",–
COc1cc(CN(C(=O)c2cc3ccccc3oc2=O)C2CCS(=O)(=O)C2)cc(OC)c1OC (stereo not drawn),19.4,–,–
O=C(CN1C(=O)C2CCCCC2C1=O)Nc1cc([N+](=O)[O-])ccc1F (stereo not drawn),-16.7,"146 nM [falling, full curve, poor fit]","146 nM [falling, full curve, poor fit]"
Cc1cc(C(=O)N/N=C/c2ccc([N+](=O)[O-])s2)c2ccccc2n1,-1.28,–,"4.61 nM [rising, full curve, poor fit]"
O=C(CSc1ccc(Cl)cc1)Nn1cnnc1,–,"4.61 nM [falling, full curve, poor fit]",–
COCCn1c(C)cc(C(=O)CSc2ccc(NC(C)=O)cc2)c1C,5.09,–,–
Cc1ccc(C(=O)OC(C)C(=O)c2cc(C)c(C)cc2C)o1 (stereo not drawn),17.5,"4.61 nM [rising, full curve, poor fit]",–
COc1ccc(C(=O)N2CCN=C2SC)cc1,-22.3,"116 nM [falling, full curve, poor fit]",–
COc1cc(C(=O)Nc2cccc(NC(=O)c3cccs3)c2)cc(OC)c1OC,-5.61,"29100 nM [falling, single point]",–

# In the list so far, these contain a tert-butyl group.
Compound,cell number change [%],AC50 [1],AC50 [2]
CC(C)(C)NC(=O)C(OC(=O)Cn1nnc(-c2ccc(F)cc2)n1)c1ccncc1 (stereo not drawn),5.83,–,–
CC(C)(C)c1ccc(-c2cc(-c3ccccc3O)[nH]n2)cc1,4.73,–,–

# No new results follow: an excerpt of the list.
Compound,cell number change [%],AC50 [1],AC50 [2]
COCCn1c(C)cc(C(=O)CSc2ccc(NC(C)=O)cc2)c1C,5.09,–,–
Cc1ccc(C(=O)OC(C)C(=O)c2cc(C)c(C)cc2C)o1 (stereo not drawn),17.5,"4.61 nM [rising, full curve, poor fit]",–
